Results on 42 sequences are retold here after paper PMC7819943, “Rice protein-binding microarrays: a tool to detect cis-acting elements near promoter regions in rice”.

The list shows a part of the results.

This experiment addresses T1, OsSMF1 (Oryza sativa, UniProt Q6ZLB0 1-436).
T1 sequence: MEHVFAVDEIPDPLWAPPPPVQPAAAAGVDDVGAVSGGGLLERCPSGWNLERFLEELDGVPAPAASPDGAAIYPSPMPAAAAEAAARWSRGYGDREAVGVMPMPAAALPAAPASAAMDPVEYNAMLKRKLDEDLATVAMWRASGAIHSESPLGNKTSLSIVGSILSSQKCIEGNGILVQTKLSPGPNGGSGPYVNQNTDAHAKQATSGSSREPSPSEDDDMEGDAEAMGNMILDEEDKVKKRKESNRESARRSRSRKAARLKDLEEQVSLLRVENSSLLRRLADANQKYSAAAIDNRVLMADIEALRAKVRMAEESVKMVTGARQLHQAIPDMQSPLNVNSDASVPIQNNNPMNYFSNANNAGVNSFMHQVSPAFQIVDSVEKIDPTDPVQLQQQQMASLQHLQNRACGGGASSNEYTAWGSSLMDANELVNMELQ
Description: protein-binding microarray (RPBM); PBS, 2% BSA, 51.3 ng/ul salmon testes DNA, 50 uM zinc acetate, 200 nM TF, 25 C, 1 h; high values mean tight binding. Particulars: protein: recombinant; tags: N-terminal polyhistidine and DsRed monomer fusion (pET32a); chain copies: 2; label: CyDye5-dUTP incorporated in the synthesized complementary strand; 3' TTTTT single-stranded linker to array surface; dsDNA, one strand shown. The method in brief: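 Using Ni–NTA, transcription factors fused N-terminally to polyhistidine and DsRed were purified after expression in E. coli BL21-CodonPlus. These were incubated at 200 nM with a blocked, double-stranded custom Agilent array for 1 h at 25 °C in a buffer containing 50 µM zinc acetate, and the array was washed. The binding signal is per-feature fluorescence intensity (arbitrary units) on an Axon 4000B scanner.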
Take “TGCAGAACGGAGTAATTTCTTACAGATCATCCTGTTTCTGCGGAGTCACCTAGTGCAG”: the binding signal was 3770 fluorescence intensity (a.u.).

Take “TGAAGATTGATGAGATGGACGGTACCATTGCCGATGCTGTCGGAGTCACCTAGTGCAG”: the binding signal was 3160 fluorescence intensity (a.u.).

Consider “TTTTGCAACACCATAATATTCTTCAACTCTCACTCCATCACGGAGTCACCTAGTGCAG”, for which the binding signal is 3410 fluorescence intensity (a.u.).

“CATCGTCGACGATGACACCACGCGTGATGCGAGTCCCTCACGGAGTCACCTAGTGCAG”: the binding signal was 3470 fluorescence intensity (a.u.).

For the sequence “CAAAGTTAGCAGGCAACGCGTCACTACCGCGTGATCATTTCGGAGTCACCTAGTGCAG”, the binding signal was 4470 fluorescence intensity (a.u.).

Turning to “AGTCATTGTTTTAGGATGTGTCACATCCACCCAAAATCACCGGAGTCACCTAGTGCAG”, the binding signal was 3930 fluorescence intensity (a.u.).

In the case of “CGACGAGGTTAACCTACCCAGCGTGCACACGTGTCACACCCGGAGTCACCTAGTGCAG”, the binding signal was 7880 fluorescence intensity (a.u.).

For “AAGTGGAACCCACGTATCATCCTCCCTCTTCTCTCTTCCTCGGAGTCACCTAGTGCAG”, the binding signal was 4160 fluorescence intensity (a.u.).

As to “AGTTCCACTTGATATCCTAACATCCTTGTTGGCTTGGTGTCGGAGTCACCTAGTGCAG”, the binding signal is 3200 fluorescence intensity (a.u.).

For the sequence “GAGGGGAAAGATAGATGATGTGGCATTCTGACATGTGGAGCGGAGTCACCTAGTGCAG”, the binding signal is 15300 fluorescence intensity (a.u.).

In the case of “CGGCCAAGTCGTCAAGAAGCTAGCTAGTCATTGCCAGTGGCGGAGTCACCTAGTGCAG”, the binding signal is 3260 fluorescence intensity (a.u.).

For “GGTCCAGTGGGCCCCACGCGTCAGCCGCACGCGGACCCGCCGGAGTCACCTAGTGCAG”, the binding signal is 7570 fluorescence intensity (a.u.).

In the case of “GTTGGCAATGATGTACAGTTGGAGCGGTGATGGTGGCGTGCGGAGTCACCTAGTGCAG”, the binding signal is 4310 fluorescence intensity (a.u.).

For the sequence “CTTGTCTCCCTCCACGTTCGCACGTCGCCGCCTGCCTGCTCGGAGTCACCTAGTGCAG”, the binding signal is 8610 fluorescence intensity (a.u.).

With “ACTGGAAAATTTGGTCCACCTGTCTCGTCAACAGATTTCACGGAGTCACCTAGTGCAG”, the binding signal is 3380 fluorescence intensity (a.u.).

As to “CACGCATGCTTCGCGTCACTGCACGCATGTGACATTGTCACGGAGTCACCTAGTGCAG”, the binding signal was 5760 fluorescence intensity (a.u.).

Take “ATCAATCTAATCATGACTTTGAGTCATTTCCGATCTAACTCGGAGTCACCTAGTGCAG”: the binding signal was 4000 fluorescence intensity (a.u.).

Turning to “CAATCAGAGCCCAAAATAGGAGTCCATGTCACGTACATAACGGAGTCACCTAGTGCAG”, the binding signal was 4490 fluorescence intensity (a.u.).

In the case of “CTCAAAACTTCCAGTCTGACTCACACTCACAAACACAAAGCGGAGTCACCTAGTGCAG”, the binding signal was 3760 fluorescence intensity (a.u.).

Consider “ATGGACTGTTTTGTCAACTAAGTAATGCATGACACGTGGACGGAGTCACCTAGTGCAG”, for which the binding signal is 14500 fluorescence intensity (a.u.).

Regarding “ACTAAGATCGTAATAAAACATCGTATGTGCAGTATTTTCCCGGAGTCACCTAGTGCAG”, the binding signal is 3530 fluorescence intensity (a.u.).

As for “ACCACTTCTCTCTTGGAATTCATGAAACCGACGCCGAAAACGGAGTCACCTAGTGCAG”, the binding signal was 3200 fluorescence intensity (a.u.).

For the sequence “TTTAATGGAGGGAGTACGTGTCATCGAGGGCTCGTTGATGCGGAGTCACCTAGTGCAG”, the binding signal was 8160 fluorescence intensity (a.u.).

For “GCCGCTGCCCGACGCCAAATCTGGTGAGCTCGGTGGATGCCGGAGTCACCTAGTGCAG”, the binding signal was 3280 fluorescence intensity (a.u.).

In the case of “CTCGTCGGCCTCAACCACCTTCTTGGGATCTGCGCAACACCGGAGTCACCTAGTGCAG”, the binding signal was 3170 fluorescence intensity (a.u.).

Turning to “AAACCGAACCAAACGACGGTGACTCACCCATGGTCTCGATCGGAGTCACCTAGTGCAG”, the binding signal is 14100 fluorescence intensity (a.u.).

With “TAAGCAGATGCTTGAGTGCACTGCTGCGGATTTGGCACTCCGGAGTCACCTAGTGCAG”, the binding signal was 3250 fluorescence intensity (a.u.).

With “GACTACGGCGCGCGGGCGGGCGGGAGGGCGGACGCGGCGGCGGAGTCACCTAGTGCAG”, the binding signal was 3700 fluorescence intensity (a.u.).

As to “AATTTCTTTGATGGTAAGATGAGTCACAACGAAATAAATGCGGAGTCACCTAGTGCAG”, the binding signal is 5460 fluorescence intensity (a.u.).

For the sequence “GATCAAAATTTAATCTGACGGTGCGTTTGGTTTCCTTGCACGGAGTCACCTAGTGCAG”, the binding signal was 3950 fluorescence intensity (a.u.).

With “CGCCGCTCTCGTTCCCACTCCCGCGTGGCCCCACGCCGCGCGGAGTCACCTAGTGCAG”, the binding signal was 4590 fluorescence intensity (a.u.).

On to “GGTGATCACATTGGCCCTTTCAACCTGGGAAACCCAGGAGCGGAGTCACCTAGTGCAG”, for which the binding signal is 26000 fluorescence intensity (a.u.).

As to “GTCCAAGAAGCCTCCATGGCCATGGATCTCACCTCCTCCTCGGAGTCACCTAGTGCAG”, the binding signal is 3170 fluorescence intensity (a.u.).

Turning to “CCAGTCCAATACCTCCAACCCAAGTCTTCTTCCTCGTCTCCGGAGTCACCTAGTGCAG”, the binding signal was 10700 fluorescence intensity (a.u.).

With “CCCACACCACCTCTCATCGACTCATTTGCTTGCATCTTCCCGGAGTCACCTAGTGCAG”, the binding signal is 3220 fluorescence intensity (a.u.).

For the sequence “AACTCCGAGCGTTGCTATGGGAGTTCCGTAAAATAGTAATCGGAGTCACCTAGTGCAG”, the binding signal is 39300 fluorescence intensity (a.u.).

“GGTCTCCACGCCTACGCATCCACGTCTCCAGCCAGGTCCACGGAGTCACCTAGTGCAG”: the binding signal was 3540 fluorescence intensity (a.u.).

Consider “GCGGCGGAGGCGTACCTGAAGCAGTGTCAGGTAGCTCGACCGGAGTCACCTAGTGCAG”, for which the binding signal is 4470 fluorescence intensity (a.u.).

For “AACGTCTTGCTGATTGTGATCCTCGTGTCCTAAAAGAACACGGAGTCACCTAGTGCAG”, the binding signal was 3610 fluorescence intensity (a.u.).

For the sequence “CCGCTGCCCAAGGTTGCCGAGTCGGCTACTGCTGTCTGAGCGGAGTCACCTAGTGCAG”, the binding signal is 3730 fluorescence intensity (a.u.).

In the case of “GGGCAGCGTGTACAAGCCGGACAACGTGTCGCCGCCGGAGCGGAGTCACCTAGTGCAG”, the binding signal is 3340 fluorescence intensity (a.u.).

In the case of “TACGGCCACGCATCTGGAGTCAGTGCTGACGAGCACACAACGGAGTCACCTAGTGCAG”, the binding signal is 3920 fluorescence intensity (a.u.).
